Laboratory results: patent publication US8324186B2, “4-azetidinyl-1-heteroatom linked-cyclohexane antagonists of CCR2” (Janssen Pharmaceutica N.V., priority 2009, dated 2012)
pIC50: −log10 of the molar value.

Protein sequences, listed by entry. Tags and fused reporters are not part of them. Lines headed by an entry give the natural chain unless they say otherwise; changes in a name come on top.
UniProt P41597: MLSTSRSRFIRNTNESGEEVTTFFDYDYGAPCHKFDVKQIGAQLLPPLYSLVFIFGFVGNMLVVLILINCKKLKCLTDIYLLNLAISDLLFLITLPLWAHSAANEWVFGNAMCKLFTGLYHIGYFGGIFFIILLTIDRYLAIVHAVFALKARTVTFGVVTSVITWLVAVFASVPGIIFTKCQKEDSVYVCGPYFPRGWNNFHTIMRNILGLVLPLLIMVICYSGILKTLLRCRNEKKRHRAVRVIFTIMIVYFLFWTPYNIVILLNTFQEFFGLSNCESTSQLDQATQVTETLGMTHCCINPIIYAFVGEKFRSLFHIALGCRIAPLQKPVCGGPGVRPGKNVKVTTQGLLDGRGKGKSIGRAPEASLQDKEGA

Biological target: T1, CCR2 (Homo sapiens, UniProt P41597)
T1 construct: host or cells: THP-1 human monocytic cells
Experiment: MCP-1 Receptor Binding Assay in THP-1 Cells (125I-MCP-1 displacement)
Settings: 0.5 nM 125I labeled MCP-1, 2 hours at 30° C., read-out: CCR2 Binding, Inhibition of MCP-1 Binding IC50
Protocol: Compounds of the invention were subjected to various representative biological tests. The results of these tests are intended to illustrate the invention in a non-limiting fashion. MCP-1 Receptor Binding Assay in THP-1 Cells
Human monocytic cell line THP-1 cells were obtained from American Type Culture Collection (Manassas, Va., USA). The THP-1 cells were grown in RPMI-1640 (RPMI: Roswell Park Memorial Institute Medium-cell culture growth media) supplemented with 10% fetal bovine serum in a humidified 5% CO2 atmosphere at 37° C. The cell density was maintained […].
THP-1 (cells were incubated with 0.5 nM ^125I labeled MCP-1 (Perkin-Elmer Life Sciences, Inc. Boston, Mass.) in the presence of varying concentrations of either unlabeled MCP-1 (R & D Systems, Minneapolis, Minn.) or test compound for 2 hours at 30° C. in a 96 well plate. Cells were then harvested onto a filter plate, dried, and 20 μL of Microscint 20 was added to each well. Plates were counted in a TopCount NXT, Microplate Scintillation & Luminescence Counter (Perkin-Elmer Life Sciences, Inc. Boston, Mass.). Blank values (buffer only) were subtracted from all values and drug treated values were compared to vehicle treated values. 1 μM cold MCP-1 was used for nonspecific binding.
Table 1 lists IC50 values for inhibition of MCP-1 binding to CCR2 obtained for test compounds of the invention. […]

pIC50: 5.54
Compound: Cc1cccnc1OC1CCC(N2CC(NC(=O)CNC(=O)c3cccc(C(F)(F)F)c3)C2)CC1 (single isomer, unassigned) [Example 17a, N-({1-[4-(3-Methyl-pyridin-2-yloxy)-cyclohexyl]-azetidin-3-ylcarbamoyl}-methyl)-3-trifluoromethyl-benzamide]
